# Experimental data as given in patent US8124794B2, “Method for the asymmetric synthesis of beta-lactone compounds” (Sanford-Burnham Medical Research Institute, priority 2006, dated 2012).
# At least one compound was matched to its structure with a doubt left.
# Experiments:
# MCF-7 cells = assay: Apoptosis by DNA fragmentation ELISA; conditions: MCF-7, 48 hours
# MDA-MB-435 cells = assay: Cell cycle progression by propidium iodide staining and flow cytometry; type: cell-based, human
# HUVEC [1] = assay: HUVEC proliferation by BrdU incorporation; type: cell-based, human; conditions: basal medium supplemented with 0.2% FCS only
# Experimental: The effect of orlistat on HUVEC proliferation induced by several mitogenic stimuli was assessed by BrdU incorporation. Orlistat and mitogen were added simultaneously to serum-starved cells, and BrdU included during the period equivalent to the second round of the cell cycle after mitogen addition. Orlistat inhibited proliferation induced by complete endothelial medium (containing a undefined mixture of mitogens), by bFGF and by VEGF. […] Cell proliferation was measured by incorporation of BrdU. HUVEC were seeded in 96 well plates at a density of 2000 cells/well and cultured in Endothelial Growth medium (EGM; Clonetics, Walkerville, Md.) for 24 h at 37° C. Cells were serum-starved for further 24 h in Endothelial Basal Medium (EBM; Clonetics, Walkerville, Md.)+0.2% FCS. Medium was replaced with orlistat (40-0 uM) diluted in (A) EGM, (B) EBM+2% FCS+bFGF (5 ng/ml), (C) EBM+2% FCS+VEGF (20 ng/ml) or (D) EBM+0.2% FCS. Cells were incubated 48 h at 37 deg C., with BrdU present during the final 24 h. Medium was removed, the cell monolayers fixed, and BrdU incorporation measured by ELISA. Proliferation was expressed as a percentage of that measured in the absence of orlistat.
# PC3 cells = assay: Orlistat-induced apoptosis by annexin V labeling; type: cell-based
# colon cancer cell lines = assay: Apoptosis in colon cancer cell lines; type: cell-based; conditions: a number of colon cancer cell lines
# normal human fibroblasts = assay: Orlistat-induced apoptosis by annexin V labeling; type: cell-based; conditions: series of normal human fibroblasts
# fibroblasts (HF cells) = assay: Apoptosis by DNA fragmentation ELISA; type: cell-based; conditions: 48 hours
# HUVEC [2] = assay: HUVEC passage through the cell cycle, DNA content by flow cytometry; type: cell-based, human; conditions: 10 uM orlistat
# normal HMECs = assay: Apoptosis by DNA fragmentation ELISA; conditions: 48 hours
# DU-145 cells = assay: Orlistat-induced apoptosis by annexin V labeling; type: cell-based
# LNCap cells = assay: Orlistat-induced apoptosis by annexin V labeling; type: cell-based
# [3] = system: normal prostate epithelial (PrEC) cells; assay: Orlistat-induced apoptosis; type: cell-based
smiles,measurement,setting,value
"CCCCCCCCCCC[C@@H](C[C@@H]1OC(=O)[C@H]1CCCCCC)OC(=O)[C@H](CC(C)C)NC=O [Orlistat, tetrahydrolipstatin]",apoptotic response,MCF-7 cells,only a moderate effect
same,"cell cycle distribution (G1, S)",MDA-MB-435 cells,pronounced increase in the percentage of cells present in G1
same,proliferation in basal medium,HUVEC [1],also inhibited
same,apoptotic response,PC3 cells,pronounced apoptotic response
same,apoptosis,colon cancer cell lines,induces apoptosis
same,apoptotic effect,normal human fibroblasts,no apoptotic effect
same,apoptotic response,fibroblasts (HF cells),without effect
same,entry into the first round of S phase,HUVEC [2],partially blocked
same,second S phase peak,HUVEC [2],completely inhibited
same,apoptotic response,normal HMECs,without effect
same,apoptotic response,DU-145 cells,pronounced apoptotic response
same,apoptotic response,LNCap cells,small apoptotic response
same,apoptotic effect,[3],no apoptotic effect
